Results from patent US20090239928A1, “N-Pyrrolidin-3YL-Amide Derivatives As Serotonin and Noradrenalin Re-Uptake Inhibitors” (priority 2004, published 2009).
Some results were stated once for a whole list of compounds, not compound by compound.

Each compound was assayed against human serotonin and noradrenaline transporters (SERT and NET) (assay: SPA radioligand binding, NET and/or SERT (summary statement)). Conditions: at least one of hNET or hSERT, read-out: NRI Ki and/or SRI Ki.
With `CCSc1ccccc1C(=O)N(c1ccccc1)[C@H]1CCNC1` [2-(ethylthio)-N-phenyl-N-[(3S)-pyrrolidin-3-yl]benzamide] the Ki was < 200 nM. `CSc1ccccc1C(=O)N(c1ccccc1)[C@H]1CCNC1` [2-(methylthio)-N-phenyl-N-[(3S)-pyrrolidin-3-yl]benzamide] was tested, and the Ki was < 200 nM. `O=C(c1ccccc1C1CCCC1)N(CC1CCC1)[C@H]1CCNC1` [N-(cyclobutylmethyl)-2-cyclopentyl-N-[(3S)-pyrrolidin-3-yl]benzamide] was tested, and the Ki was < 200 nM. In the case of `O=C(c1ccccc1Oc1ccccc1)N(CC1CCC1)[C@@H]1CCNC1` [N-(cyclobutylmethyl)-2-phenoxy-N-[(3R)-pyrrolidin-3-yl]benzamide], the Ki is reported as < 200 nM.
